From paper PMC8155045
For at least one entry, the source does not settle the construct or the ends of the probe. At least one result comes from cells or an extract, where the contact may be indirect.

Columns and labels:
Assay in all cases: EMSA
[1] = system: endogenous NF-YA + NF-YB minimal domain (YBmd) + NF-YC minimal domain (YCmd); details: 60 nM YB/YCmd added to nuclear extract; EMSA: 20 nM Cy5 probe, 10 ug HeLa nuclear extract, 30 min at 30 C; 4.5% native PAGE in 0.25x TBE; binding buffer; protein in an extract; label: 5'-Cy5
[2] = system: EGFP-NF-YA (37 kDa isoform) + NF-YB minimal domain (YBmd) + NF-YC minimal domain (YCmd); details: 60 nM YB/YCmd added, bound fraction increased; EMSA: 20 nM Cy5 probe, 10 ug HeLa nuclear extract, 30 min at 30 C; 4.5% native PAGE in 0.25x TBE; binding buffer; protein in a lysate after overexpression; protein details: N-terminal EGFP; label: 5'-Cy5
[3] = system: EGFP-NF-YA (37 kDa isoform) + endogenous NF-YB + endogenous NF-YC; details: EGFP-YA transfected HeLa nuclear extract, endogenous complex completely substituted; EMSA: 20 nM Cy5 probe, 10 ug HeLa nuclear extract, 30 min at 30 C; 4.5% native PAGE in 0.25x TBE; binding buffer; protein in a lysate after overexpression; protein details: N-terminal EGFP; label: 5'-Cy5
[4] = system: endogenous NF-YA + endogenous NF-YB + endogenous NF-YC; details: HeLa nuclear extract 10 ug; EMSA: 20 nM Cy5 probe, 10 ug HeLa nuclear extract, 30 min at 30 C; 4.5% native PAGE in 0.25x TBE; binding buffer; protein in an extract; label: 5'-Cy5

Measured: binding result

CTTCTGAGCCAATCACCGAGCTCGATGAGGC (double strand) [HSP70 promoter CCAAT-box probe]
binds: all assays above
